Laboratory results published in patent US20220370485A1, “COMPOUNDS AND METHODS FOR TREATING OR PREVENTING CARDIOVASCULAR DISEASES AND CONDITIONS” (Lexicon Pharmaceuticals, Inc., priority 2021, published 2022).

What was measured:
[1] = system: patients with type 2 diabetes mellitus recently hospitalized for worsening heart failure; details: T2DM + worsening heart failure; N = 608
[2] = system: patients with type 2 diabetes mellitus, chronic kidney disease, and additional cardiovascular risk; details: T2DM + CKD patients; N = 5292

Question: What does the source list for CCOc1ccc(Cc2cc([C@@H]3O[C@H](SC)[C@@H](O)[C@H](O)[C@H]3O)ccc2Cl)cc1 [Sotagliflozin, (2S,3R,4R,5S,6R)-2-(4-chloro-3-(4-ethoxybenzyl)phenyl)-6-(methylthio)tetrahydro-2H-pyran-3,4,5-triol]?
Answer: Early discontinuation of the trial regimen for reasons other than death or early termination of the trial - percentage of patients [1]: 13.0%; Early discontinuation of the trial regimen for reasons other than death or early trial termination - percentage of patients [2]: 10.9%
